Source: patent publication US20100069480A1, “METHODS AND COMPOSITIONS FOR THE TREATMENT OF CANCER” (Bionovo, Inc. A Delaware Corporation, priority 2008, published 2010)
At least one structure is not confirmed: it was looked up by name or label, or the drawing left a doubt.

System: MDA MB 231 and SKBr3 breast cancer cells
Assay: induction of cell death, propidium iodide test and FACS
Type: cell-based, human
Settings: Table 11

**Q.** For `O=c1cc(-c2ccc(O)cc2)oc2cc(O)cc(O)c12` [cmpd 4], which Cell death is on record?
**A.** Its Cell death is “−”.
